This note sets out measurements from PubChem BioAssay AID1347423 (Functional Genomics Laboratory (NCATS/FGL), 2020).

Hit rate of the full screen: of about 52,000 sequences, about 210 (0.4%) were called active.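 The calls were made as follows: active = gene whose silencing raises cell survival under the drug, median off-target-corrected z-score across its silencing RNAs 2 or more; inactive = the rest.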 This is one part of the list.

This assay can be described thus: Resistance to Poly (ADP-Ribose) Polymerase inhibitor: Gene Identification via Genome-wide siRNA Screen. Particulars: mouse BRCA2 R2336H ES cells, olaparib, CellTiter-Glo viability; active compounds read high. An outline of the steps: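 Genome-wide siRNA screen (3 siRNAs/gene, 20 nM) in mouse ES cells carrying hypomorphic BRCA2 R2336H; olaparib 500 nM added 48 h post-transfection, CellTiter-Glo viability 72 h later. Normalized to plate-median negative control; MAD z-scores, gene median, seed-adjusted.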
Background: Cellular ATP, detected with luciferase, serves as a proxy for viable cell number.
As for “CCCAGCUCCUCCAAAUAGUTT against 2510027J23Rik”, the z-score was inactive: -0.0476. As for “GGUUCUUACCAAGAUGAAGTT against 2510048L02Rik”, the z-score is inactive: -1.2. Under GGUUGAUUCCAACGACAUCTT against Lcn7 stands inactive: 0.672; under GGCUGAAGAGAGAUGAAUCTT against Nmur2, inactive: -1.21. Under GGUAUCCAAGAAAACCUAUTT against Tnmd stands inactive: 0.474; under GGCAUCAAUCUCUUUGAAATT against AF366264, inactive: 0.348; under CCAAAGAUGCUCCUCACCUTT against Olfr197, inactive: -2.87. Under GCAUCCUCCCUUCCCAAUGTT against Sh3bgr stands inactive: 1.27.

Consider GGCUCACAAUUGCUCUGCATT against Psg21, for which the z-score is inactive: 0.0986. The same measure for GGCCCAUCUGAGGAAGCUUTT against Magea4: inactive: -3.03. Take GCUACCACGAAUUUAUAGATT against Nalp9a: the z-score was inactive: 0.327. As to GGAAUUCAUCUGUGGUCUCTT against Trim50, the z-score was inactive: -1.15. Consider GGUGUAUUUUUUCACUGUUTT against Olfr339, for which the z-score was inactive: -0.00761.

Take GGCUUUUAGGUGUAUCAGGTT against Btg4: the z-score is inactive: -2.02. Take GGCAUGUGUUUGAUAAGACTT against Tipin: the z-score is inactive: 0.467.

With GGAAACCACAUGCCUGAGATT against Spp2, the z-score was inactive: -2.67. Under GGUCUCUUCUAUUUUUACATT against Agps stands inactive: 1.1; under GGUCAUCCUUGCCAAUCUCTT against Olfr686, inactive: 0.327; under GGGAGACCGGCAAAAAAAATT against Pde1b, inactive: 0.954. The same measure for GCUUACAAGUACAAAAAUGTT against Smarcc1: inactive: -2.22; for CCCAUGGGUUUUUAAUUGATT against Ptgdr: inactive: 1.27; for GGAAGUAGAGAUCUCCUUATT against Btn1a1: inactive: 0.956.

For the sequence “GGUGUCAAAUUGGUUCGCUTT against 9430023B20Rik”, the z-score was inactive: 1.14. The same measure for “GCUUCAAUGACACCAGAAUTT against 6430571L13Rik”: inactive: -0.617. The same measure for GCAGACCAGACAGUAUUACTT against Zfhx1a: inactive: -0.828; for GCAGAAAGAGAAUCUCCCGTT against Trp53bp2: inactive: 0.923. Under GCGGGCUUAUAGGAAGAAGTT against Isp1 stands inactive: 0.482; under GUGCCUUUGUGGUCUUCCUTT against AI839735, inactive: -0.313. Take GGCAAUUUCUAAACAGGGATT against Atp6v1f: the z-score is inactive: -0.612. The same measure for GCUUUAUUGACACGACCCGTT against Rbm19: inactive: 0.563; for “GGGUCUAAAUGACUUCUCATT against 2310009E07Rik”: inactive: -1.59. For GGUUACAUUUCGUACAAGATT against Ube2e1, the z-score is inactive: 2.15. Take GGUCCUUAGCUGUUCAUUCTT against Styx: the z-score was inactive: 0.144. The same measure for GGAACAAGCCCUGAAAGUCTT against Prl: inactive: -0.0493; for CCAUGGCACAGACAGCUAUTT against Cugbp1: inactive: 1.08; for GGUUUAACCAUGGAAGAAATT against Eya3: inactive: 0.0502. The same measure for GCGAAAGAAGCACGUACCATT against Kcnc4: inactive: -1.15. In the case of GGAGAACCUGAUGAAGAAGTT against Rai1, the z-score is inactive: -0.6. Under CCCUAUGCUAUGCCUGAGUTT against Ampd3 stands inactive: -1.52. Turning to GGGCUAUGUACCCUAUAAUTT against Eps8l1, the z-score is inactive: -1.36. For the sequence GGAGUUUCUCUGAUGAUGGTT against Hist1h2ac, the z-score was inactive: -2.09. The same measure for CCAGUAUCACUGGAUCAUATT against Sec22l3: inactive: -0.888. Under GGGAUAUCCGCCAUAAUUUTT against Pigm stands inactive: 0.664. The same measure for “GGAUGUUGGUACUUUUUGATT against 2310058A11Rik”: inactive: -0.446; for GGCAAGUCUAAAAUACAUUTT against Siat7d: inactive: -1.51; for GGGAGGUGUGGUAAACUGUTT against D1Ucla4: inactive: -0.278. Regarding GGUUACCUAUUGGAUGACATT against Muc19, the z-score was inactive: -0.928. The same measure for UUCAAAUAAACUCUCUGCUTT against LOC432602: inactive: -0.426; for “GGCUGUUUUUGCCGGUAUCTT against 2310042E22Rik”: inactive: -1.03. Under GGAAAUGUGUACAAGAACCTT against Ms4a4b stands inactive: 0.646. Regarding GCAAGAUGCAGGAUUGUAATT against Gprc5d, the z-score is inactive: -0.923. As for GGUAGACCUAGAACAGCACTT against Ttyh2, the z-score is inactive: -0.44. Under GGAGAAUGUAGAUGAAGCUTT against Dhrs2 stands inactive: 0.333.

For GGUCCAUUGCUAAAGACUGTT against Tcf19, the z-score is inactive: 0.0826.

As to GGGUAUUGCUGGACAACGUTT against Col1a1, the z-score was inactive: -0.227. For the sequence GGCUAGUGUUUUCAACAAUTT against Atp10d, the z-score is inactive: 0.136. As for GGCAUCCUGUCUGUUAUCUTT against Ptdss1, the z-score is inactive: 0.845. Under GCCUACAAGCAGGUACUAUTT against Olfr30 stands inactive: -2.25; under “GCGAUAUUAACUAUGGAGATT against 9630018L10Rik”, inactive: -0.375. With GGCUGUGCGUGUUACAAAATT against Keo4, the z-score was inactive: -0.334. Under GGCUGUCUCCCUAGUGAAATT against Shrm stands inactive: 0.74; under “GGAGUGAUUCAGUGAAAACTT against 1700012F17Rik”, inactive: 0.379; under “GCGAUAUAAGAGAGACAAGTT against 9030407H20Rik”, inactive: 1.09.

As to GGUGGAAUGAGGAAACAACTT against Cck, the z-score is inactive: -0.755.

Take “GCAAAGGGUGAUUCUUACCTT against 1700027A23Rik”: the z-score is inactive: -0.421. As to GGUGAUGAUGUCAUACAAATT against Cav1, the z-score was inactive: 0.0573. Turning to GCUUAAAUCCGACGAGAAGTT against Rrm2b, the z-score is inactive: -0.0248. Under GAAGAUGGUAGAGUCUACATT against Hcst stands inactive: -1.68. The same measure for GCUGCAGAGAAGAGCAAUGTT against Olfr872: inactive: 4.21; for GGGCUAGAUGAAUUUUUGATT against Agtrl1: inactive: 0.251; for “GGAUUUCUCCAUGAUGAGATT against 1700036D21Rik”: inactive: 0.365.

For GGAGGAACUGAUCUUUCGATT against Gdnf, the z-score was inactive: 0.0743.

Consider CAGGAUUCCUUGGACAUACTT against Olfr477, for which the z-score is inactive: -1.99. Under CGUAUUGAUGUUGGGUAGCTT against Oas1c stands inactive: 0.85; under GGCAGAUCUAUUGACAAACTT against Nts, inactive: 0.0721; under CCUCAUUGUACCUUGCUGATT against Surf6, inactive: 0.98.

On to GGAGUUUUACGCACUCUGUTT against Ixl, for which the z-score was inactive: 1.24.

As to GGGAAAUGUUUUCCAAAGATT against Tep1, the z-score was inactive: 0.921.

As to GGGAAAACAGGUACGACUGTT against Odf1, the z-score was inactive: 0.805. The same measure for GGACUUCUACACCUCGAAATT against X83328: inactive: 0.341. Regarding GGAAGUUCUACACUCGUCUTT against Fzd2, the z-score is inactive: 0.0921. Turning to “GGCUGUGAUCUCCUGGCUUTT against B830028P19Rik”, the z-score is inactive: -0.0956. The same measure for CCCUCUGAACUAUAUGACUTT against Olfr700: inactive: -0.627. With GCAUAUCGCUUUUGUGAGCTT against E2f6, the z-score is inactive: 1.06.

Take CCAGGAAAUUCGUGCAUGATT against Rutbc1: the z-score is inactive: -2.31. The same measure for CCUGGUUUACAUGUACGGGTT against Tap2: inactive: -0.756; for “GGCUAUUUGAAAACCAACUTT against 2310001A20Rik”: inactive: -0.0353; for CCUCUGUGUUAUUUUGCAUTT against Pgm2: inactive: 1.61. Under “GGUGGAUUUCUAUGUUCAATT against 2410043F08Rik” stands inactive: -1; under GAAUCUUACCCUCUUUCUCTT against Olfr541, inactive: 0.176; under GGAACAUUUUGAGAUUUACTT against Abca5, inactive: 2.8. Consider GGACCAUUCAUGGACUAGCTT against Mtap7, for which the z-score was inactive: 0.657. The same measure for GCAGUUUUAUAAUCCUAGUTT against Tceb3: inactive: 0.508; for CCUCUAUUCUCCGUCUAUGTT against Fars1: inactive: 0.313; for GGUCCGGUGAAAGGAUUUUTT against Spag11: inactive: -0.331. GGAUCUUCUCUGCCUAUAUTT against Arpc1b: the z-score was inactive: -3.47. Under GGUCGCUGUGAAAAUAAUATT against Mark1 stands inactive: -0.927; under GGAUGAGGGCGACUACUUUTT against Thy1, inactive: -0.617. In the case of GGAAAGUGGACACCUUCCATT against AI854408, the z-score was inactive: -1.04.

In the case of “GGUCAAUCAGUUAUAAGCUTT against 5430413I02Rik”, the z-score was inactive: 1.24.

In the case of “GGGUGAUUUCUUGAGUACATT against 1200009I06Rik”, the z-score is inactive: 0.0539. Consider “GGCCAUUUUUCUAGUGCUUTT against 1110038F14Rik”, for which the z-score was inactive: -0.859. As for GCGUAGAGUCCUUUCGUCUTT against Krt1-10, the z-score was inactive: -0.936.

Turning to GCUGAUGGUAUAAAAGUAGTT against Glud1, the z-score was inactive: -0.789.
